# Screen size: about 360,000 compounds; about 7,500 (2.1%) were called active. Inconclusive results, whose numbers are uncertain, are shown with a selection of clear calls. Calls come from the whole dose curve; as a rule, active = well fitted inhibition curve with a large enough effect; inconclusive = small, poorly fitted or top-dose-only effect, or effect the other way; inactive = flat fitted curve, though single readings scatter. A potency beside an inconclusive call is a rough fit, not a confirmed value.
# Test: Nrf2 qHTS screen for inhibitors; note: nearly all actives have a fitted effect of over 60% in size
# Conditions: A549 ARE-Fluc reporter, luciferase luminescence, 18-24 h; activity change, negative = inhibition: at 46 µM (top of the series)
# Procedure, shortened: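 Nrf2 function is reported as luminescence of an ARE-controlled luciferase in A549 cells. Compounds were tested at several concentrations, and a CellTiter-Fluor read on the same wells flagged cytotoxicity.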
# % is set by controls: 0 for no effect and ±100 for the full control effect; potency is the fitted concentration of half-maximal effect.
SMILES,Potency,"activity change, negative = inhibition"
CCN(C[C@H]1N[C@@](C)(C(=O)OC)[C@H]2C(=O)N(C)C(=O)[C@@H]12)C(=O)c1ccc(C)cc1,"inconclusive: 16.4 µM [activator, partial curve, poor fit]",
Cc1ncsc1C(=O)NCc1ccc(N2CCCC2=O)cc1,"inconclusive: 23.1 µM [falling, partial curve, poor fit]",
c1cc(-c2sc(-c3ccncc3)c(-c3ccncc3)c2-c2ccncc2)ccn1,"inconclusive: 8.2 µM [falling, partial curve, poor fit]",
O=C(c1cccs1)N1N=C(c2ccccc2)CC1c1ccc(O)cc1 (stereo unspecified),"inconclusive: 25.9 µM [falling, single point]",
O=C(c1ccco1)N1CCN=C1SCc1ccc(F)cc1,"inconclusive: 3.66 µM [falling, partial curve]",
COc1ccc(NC2=Nc3ccccc3N3C2=Nc2c(c(C)nn2-c2ccc(C)cc2)C3c2cccnc2)cc1 (stereo unspecified),,inactive: 8.05%
Cc1cc(C)c(NC(=S)NC(=O)c2ccc(-c3ccccc3)cc2)c(C)c1,"inconclusive: 25.9 µM [activator, single point]",
CC(=O)C1=C(O)C(=O)N(c2ccc(O)cc2)C1c1ccc([N+](=O)[O-])cc1 (stereo unspecified),"inconclusive: 14.6 µM [falling, partial curve, poor fit]",
Nc1nonc1-n1nnc(C(=O)N/N=C/c2ccc(OCc3ccc(F)cc3)cc2)c1COc1ccccc1,"inconclusive: 29.1 µM [falling, single point]",
COC(=O)c1c(C)oc2ccc(NS(=O)(=O)c3cc(OC)ccc3OC)cc12,"inconclusive: 18.4 µM [falling, single point]",
NC(=O)CC(NC(=O)Cc1cccc2ccccc12)c1ccc(N2CCC(Br)CC2)c([N+](=O)[O-])c1 (stereo unspecified),"inconclusive: 32.6 µM [falling, single point]",
CC(C)C[C@H]1CNC(=S)N1CC1CCCN1C[C@H](Cc1ccccc1)N1C[C@H](Cc2ccc(O)cc2)N(CC2CCCCC2)C1=S (stereo partly specified),"inconclusive: 18.4 µM [falling, single point]",
CCn1c(N2CCN(C(=S)Nc3ccc(OC)cc3)CC2)nc2ccccc21,active: 16.4 µM,
Cc1cc(C(C)(C)CC(C)(C)C)ccc1OCCOCC[N+](C)(C)Cc1ccccc1,"inconclusive: 23.1 µM [falling, single point]",
CC(C)(C)NC(=O)C(c1ccco1)N(C(=O)Cn1nnc(-c2ccc(F)cc2)n1)c1ccccc1F (stereo unspecified),"inconclusive: 29.1 µM [falling, single point]",
O=C(Nc1ccc(S(=O)(=O)N2CCCCC2)cc1)c1ccc(F)cc1,active: 29.1 µM,

# Record cards (already shown):
# Cc1cc(C(C)(C)CC(C)(C)C)ccc1OCCOCC[N+](C)(C)Cc1ccccc1 is listed with Potency: inconclusive: 23.1 µM [falling, single point]
# O=C(c1ccco1)N1CCN=C1SCc1ccc(F)cc1 is listed with Potency: inconclusive: 3.66 µM [falling, partial curve]
